# Measured values reported in PubChem BioAssay AID2551 (National Center for Advancing Translational Sciences (NCATS), 2010).
# Amino acid sequences for entries named in this document (tags omitted). A change or cut given only in a name is not applied to a line headed by its entry.
# UniProt P51450: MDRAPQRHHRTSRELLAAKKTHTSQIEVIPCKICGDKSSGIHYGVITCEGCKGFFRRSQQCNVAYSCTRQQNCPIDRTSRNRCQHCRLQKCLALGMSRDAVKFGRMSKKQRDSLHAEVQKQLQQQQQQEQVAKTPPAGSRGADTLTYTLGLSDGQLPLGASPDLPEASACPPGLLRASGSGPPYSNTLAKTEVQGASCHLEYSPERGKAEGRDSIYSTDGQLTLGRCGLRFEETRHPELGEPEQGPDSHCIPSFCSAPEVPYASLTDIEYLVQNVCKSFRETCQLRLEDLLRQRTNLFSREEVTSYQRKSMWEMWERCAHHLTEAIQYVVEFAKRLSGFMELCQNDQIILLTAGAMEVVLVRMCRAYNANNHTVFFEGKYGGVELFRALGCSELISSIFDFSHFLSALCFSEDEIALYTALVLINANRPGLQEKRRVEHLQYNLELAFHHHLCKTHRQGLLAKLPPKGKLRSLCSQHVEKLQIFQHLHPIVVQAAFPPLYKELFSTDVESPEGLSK
# Values joined by “and” are separate entries in the source; they are usually repeats but may differ in a detail not shown here. Identical values can stand only once. The whole screen tested about 310,000 compounds, of which about 17,000 (5.5%) were called active. Inconclusive means that the source gave no clear call. Such entries were picked first, then a sample of the others. Calls come from the whole dose curve; as a rule, active = well fitted inhibition curve with a large enough effect; inconclusive = small, poorly fitted or top-dose-only effect, or effect the other way; inactive = no such curve, though single readings can be large or run the other way. Where the call is inconclusive, the potency comes from a doubtful curve fit.
# Biological target: Nuclear receptor ROR-gamma (Mus musculus) (UniProt P51450)
# Assay: qHTS for inhibitors of ROR gamma transcriptional activity; note: nearly all actives have a fitted effect of over 60% in size
# Conditions: Drosophila S2 Gal4-RORgamma UAS-luciferase reporter, 20 h; series mostly up to 53.6 µM
# In short: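 Compounds are pin-transferred onto Drosophila Schneider cells expressing a copper-inducible Gal4–ROR gamma transactivation domain fusion. After 1 hr, copper sulfate is added to 700 uM final; luciferase is read 20 hr later.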
# Potency is the fitted concentration of half-maximal effect.
row,Compound,Potency
1,Cc1cnc(C(=O)OCc2ccc(Br)cc2)cn1,inactive
2,CCOc1ccccc1NC(=S)Nn1cnnc1,inactive
3,Cc1nnc(NC(=O)c2ccc(S(=O)(=O)N(C)Cc3ccccc3)cc2)o1,active: 0.199 µM
4,CC(C)[C@H](NS(=O)(=O)c1ccc2c(c1)OCCO2)C(=O)OCC(=O)Nc1ccccc1Cl,inactive
5,Cc1cc(C)nc(N/N=C/c2ccccc2OCc2ccc([N+](=O)[O-])cc2)n1,active: 14.1 µM
6,O=C(NCc1ccccc1Cl)c1cccc(OC2CCN(C(=O)C3CC3)CC2)c1,inactive
7,COc1ccccc1-c1nnc(NC(=O)Cc2ccccc2)o1,active: 2 µM
8,COc1ccc(CCNc2ncnc3sccc23)cc1OC,"inconclusive: 0.891 µM [inhibitor, full curve, poor fit]"
9,CN(C(=S)NC(=O)/C=C/c1ccc(F)cc1)C1CCCCC1,active: 1.26 µM
10,O=C1CCN(Cc2ccccc2)C(=O)N1c1ccccc1,inactive
11,CC(C)c1ccc(/C=C/C(=O)N2CCc3ccccc3C2)cc1,"inconclusive: 35.5 µM [inhibitor, single point]"
12,Oc1c(Br)cc(Br)cc1C=Nc1ccc2c(c1)OCO2,active: 17.8 µM
13,CC(C)(C)C(=O)NC(=S)Nc1ccccn1,active: 12.6 µM
14,Cc1noc(C)c1S(=O)(=O)N1CCC(C(=O)NC2CCN(Cc3ccccc3)CC2)CC1,inactive
15,O=C(Cc1ccccc1)NC(=S)Nc1ccc(N2CCCCC2)cc1,active: 2.24 µM
16,CCN(CC)c1ccc(/C=N/Nc2ccccc2)c(O)c1,inactive
17,COc1ccc(C(=O)c2sc(Nc3ccccc3)nc2N)cc1,"inconclusive: 8.91 µM [activator, partial curve]"
18,COC(=O)C1=C(CSc2nc3ccccc3s2)NC(=O)NC1c1ccc(F)cc1 (stereo unspecified),"inconclusive: 14.1 µM [activator, partial curve]"
19,O=C(O)c1ccccc1CSC1=NCCS1,"inconclusive: 15.8 µM [inhibitor, single point]"
20,Cn1nc(C(C)(C)C)c([N+](=O)[O-])c1C(=O)Nc1cccc2ccccc12,"inconclusive: 3.98 µM [activator, full curve, poor fit]"
21,OCCN1CCN(CC(O)C(F)(F)F)CC1 (stereo unspecified),inactive
22,C=CCSc1nc(C)c(CCC(C)C)c(=O)[nH]1,inactive
23,CNC(=S)NNC(=O)COc1cccc(C)c1C,active: 1.41 µM
24,Cc1ccc(CN2CCc3c(OCC(=O)Nc4cccc(C)c4C)cccc3C2=O)cc1,"inconclusive: 11.2 µM [activator, partial curve]"
25,O=C(CSc1nnc(-c2ccco2)o1)c1ccc[nH]1,inactive
26,O=C(NCc1cccnc1)Nc1ccc(Cl)c(Cl)c1,"inconclusive: 17.8 µM [activator, partial curve]"

row,Compound,Potency
1,CCCCCCC(C)n1cc(C(C)=O)c(=O)n(C)c1=O (stereo unspecified),"inconclusive: 22.4 µM [activator, single point]"
2,c1ccc2c(c1)ccc1nnc(SCc3ccc4c(c3)OCCO4)n12,"inconclusive: 12.6 µM [activator, single point]"
3,COc1cccc2sc(N(C)c3ccccc3)nc12,"inconclusive: 15.8 µM [activator, single point]"
4,COc1cc(C(=O)Nc2nc(-c3ccc(C)cc3)cs2)ccc1OCC(=O)N1CCOCC1,"inconclusive: 5.01 µM [activator, partial curve]"
5,Oc1c(C(c2ccco2)N2CCN(C(c3ccccc3)c3ccccc3)CC2)sc2ncnn12 (stereo unspecified),"inconclusive: 5.62 µM [inhibitor, single point]"
6,O=C(Nc1cccc(Cl)c1)N(Cc1nc2ccccc2c(=O)[nH]1)C1CCCC1,active: 14.1 µM
7,Cc1ccc(OCCCC(=O)Nc2ccc(S(=O)(=O)Nc3ccccn3)cc2)cc1,"inconclusive: 20 µM [activator, single point]"
8,Cc1ccsc1-c1n[nH]c(=S)n1C1CCCCC1,active: 3.55 µM
9,Cc1cccc(Oc2cnn(C(C)(C)C)c(=O)c2Cl)c1,"inconclusive: 10 µM [activator, partial curve]"
10,O=C(Oc1ccc2ccccc2c1)c1cncc(Br)c1,"inconclusive: 0.316 µM [inhibitor, partial curve]"
11,Cc1ccc(NC(=O)OCCN2CCN(Cc3ccccc3)CCC2=O)cc1C,"inconclusive: 35.5 µM [activator, single point] and inconclusive: 39.8 µM [activator, single point]"
12,C/C(=N/Nc1nc(-c2ccccc2)cc(-c2ccc(F)cc2)n1)c1cccc(N)c1,active: 11.2 µM
13,N#CC1=C(N)NC(SCc2ccc(F)cc2)=C(C#N)C12CCCCC2,inactive
14,COc1ccccc1NC(=O)c1cc2ccccc2o/c1=N\O,"inconclusive: 3.16 µM [inhibitor, full curve]"
15,COc1cc(OC)c2ccc(=O)oc2c1C(CCN1CCCC(C)C1)c1ccc(N(C)C)cc1 (stereo unspecified),inactive
16,CCN(CC)C(=O)COc1ccc(/C(C)=N/NC(=O)c2ccccc2O)cc1,"inconclusive: 15.8 µM [inhibitor, single point]"
17,Cc1ccc(CCC(=O)Nc2ncc(Cc3cc(Cl)ccc3Cl)s2)o1,"inconclusive: 15.8 µM [inhibitor, single point]"
18,CCOc1ccc(C2=Cc3cc(OC)c(OC)cc3C(=C(Cl)Cl)O2)cc1,"inconclusive: 35.5 µM [inhibitor, single point]"
19,COc1ccc(NC(=O)CSc2nc(N)c(C(=O)Nc3ccc(N(C)C)cc3)s2)cc1,inactive
20,O=C(OCc1ccc(Cl)c(Cl)c1)c1ccc[nH]1,inactive
21,CSC1=NCCN1C(=O)Cc1ccc(-c2ccccc2)cc1,"inconclusive: 35.5 µM [activator, single point]"
22,Cc1ccc(NC(=S)NC(NC(=O)c2ccccc2C)C(Cl)(Cl)Cl)c(C)c1 (stereo unspecified),"inconclusive: 35.5 µM [inhibitor, single point]"
23,CCCCCCNc1c(C(=O)OCC)c(=O)[nH]c2ccccc12,"inconclusive: 35.5 µM [inhibitor, single point]"
24,FC(F)(F)c1ccc(/C=N/N2CCN(Cc3ccccc3)CC2)cc1,"inconclusive: 22.4 µM [activator, single point]"
25,Cc1nc(/N=C(\N)NC(=O)NC2CCCCC2)nc2ccccc12,"inconclusive: 35.5 µM [inhibitor, single point]"
26,COc1ccc(CNc2ncnc3cc(Cl)ccc23)cc1OC,"inconclusive: 12.6 µM [inhibitor, single point]"

row,Compound,Potency
1,O=C(CSc1ncnc2c1oc1ccccc12)N1CCCc2ccccc21,"inconclusive: 35.5 µM [inhibitor, single point]"
2,COc1ccc(-c2c(C#N)sc(C(N)=O)c2-c2ccc(OC)cc2)cc1,"inconclusive: 17.8 µM [activator, partial curve]"
3,COc1ccc(C2(CNC(=O)/C=C/c3ccco3)CCCC2)cc1OC,"inconclusive: 12.6 µM [activator, partial curve, poor fit]"
4,O=C(Nc1ccccc1)Nc1ccc2nnsc2c1,"inconclusive: 12.6 µM [activator, single point]"
5,CC(C)Cc1cc(C(=O)Nc2ccc3c(c2)OCO3)no1,"inconclusive: 3.55 µM [activator, partial curve]"
6,O=C(CSc1nnc(CNC(=O)c2c(F)cccc2F)o1)NCc1ccccc1Cl,inactive
7,Cc1n[nH]c(=O)n1-c1ccc(Oc2ccccc2)cc1,active: 2.82 µM
8,O=C1c2cccc(OCC(=O)N3CCCc4ccccc43)c2CCN1Cc1cccnc1,"inconclusive: 12.6 µM [activator, partial curve]"
9,CCc1nnc(NC(=O)c2ccc3c(c2)C(=O)N(C(C)(C)C)C3=O)s1,inactive
10,Cc1cccc(-n2nnnc2SCC(=O)Nc2ccc(N3CCN(C)CC3)cc2)c1,inactive
11,COc1cc(S(=O)(=O)N(C)C2CCCCC2)c(C)cc1C,inactive
12,O=C1C(=O)N(CC2CCCO2)C(c2ccccc2[N+](=O)[O-])/C1=C(/O)c1ccccc1 (stereo unspecified),"inconclusive: 11.2 µM [activator, partial curve]"
13,O=C(Nc1ccccc1Cl)c1ccc([N+](=O)[O-])o1,active: 10 µM
14,COc1ccc(/C=N/NC(=O)CCN2CCN(c3ccccc3)CC2)c(OC)c1OC,"inconclusive: 0.112 µM [inhibitor, full curve, poor fit]"
15,Cc1ccc(C(=O)NC(=S)Nc2ccc(NC(=O)c3cccs3)cc2)cc1[N+](=O)[O-],active: 6.31 µM
16,O=c1cc(-c2ccc(O)c(O)c2)oc2cc(OC3OC(CO)C(O)C(O)C3O)cc(O)c12 (stereo unspecified),inactive
17,COc1cccc(NC(=S)N2CCN(Cc3ccccc3)CC2)c1,"inconclusive: 20 µM [inhibitor, single point]"
18,O=C(/C=C/c1ccccc1)c1ccccc1O,"inconclusive: 35.5 µM [inhibitor, single point]"
19,COc1cccc(Nc2ncnc3ccccc23)c1,"inconclusive: 2 µM [activator, partial curve, poor fit]"
20,O=c1cc(N2CCCCC2)[nH]c(=O)n1C1CCCCC1,inactive
21,Nc1ccc(C(=O)N2N=C(c3ccc(F)cc3)CC2(O)C(F)(F)F)cc1 (stereo unspecified),"inconclusive: 35.5 µM [inhibitor, single point]"
22,COc1ccccc1N1CCN(C(=O)C2CCC(Cn3c(=S)[nH]c4ccccc4c3=O)CC2)CC1 (stereo unspecified),active: 2.51 µM
23,COc1ccccc1C(=O)NNC(=S)NC(=O)c1ccco1,active: 15.8 µM
24,O=C(Nc1cccnc1)c1ccc(Cl)c(S(=O)(=O)N2CCCCCC2)c1,"inconclusive: 7.94 µM [activator, partial curve]"
